Source: publication PMC12209172, “Poly(ADP-ribose)polymerase 2 is zinc-dependent enzyme and nucleosome reorganizer” (Cellular and Molecular Life Sciences: CMLS, 2025)
Where “and” joins values, the source holds several entries; their conditions need not be identical. Equal entries are not always repeated. The source gives many values for each of these; only a part stands here.

Protein sequences, listed by entry. Tags and fused reporters are not part of them. Residues count along the entry.
UniProt Q9UGN5, 77-220: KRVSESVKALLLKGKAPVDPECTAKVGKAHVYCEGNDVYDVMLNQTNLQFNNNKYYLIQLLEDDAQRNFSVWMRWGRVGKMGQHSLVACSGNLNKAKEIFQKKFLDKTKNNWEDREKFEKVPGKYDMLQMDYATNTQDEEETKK

Target: T1, WGR domain of PARP2 (Homo sapiens, UniProt Q9UGN5)
T1 construct: WGR domain of PARP2 (residues 77–220) into pET-15b-TEV expression vector; 6xHis (pET-15b-TEV) (N, cleaved yes); made in house; host or cells: Escherichia coli Rosetta2 (DE3) pLysS
Assay: Tryptophan fluorescence spectroscopy of the WGR domain titrated with divalent cations (one site binding fit)
Settings: listed as Zn
Experimental: Fluorescence spectra of Trp residues were measured in the 300–450 nm spectral range at the 270 nm excitation wavelengths using the Cary Eclipse spectrofluorometer (Varian/Agilent, USA).
Fluorescence of WGR domain was measured at 0.5 or 5 µM in a buffer containing 10 mM HEPES (pH 8.0), 150 mM NaCl and 0.73 or 7.3 µM EDTA, respectively. Solutions were complemented with ZnCl2 (0.2–308 µM) or MgCl2 (15–5000 µM), or CaCl2 (8–5000 µM) dissolved in a buffer containing 10 mM HEPES (pH 8.0), 150 mM NaCl. Intensity of the measured spectra was corrected for the concomitant dilution of the WGR domain. Integral intensities (Ifl.) of fluorescence spectra were averaged over three independent measurements (mean ± SEM) and used to plot the corresponding Ifl. vs. ion concentration graphs. Data were fitted with the one site binding equation:2 [drawing 2]
Where C is the concentration of divalent cations, Kd is a dissociation constant of the complex, Im and Ifl0 are maximal and initial values of Ifl., respectively.

fluorescence intensity (Fig 3d) (wavelength 344.060, 5.9 uM Zn): 72.459 and 82.192 and 100.090 and 79.146
fluorescence intensity (Fig 3d) (wavelength 344.060, 303 uM + 7 mM EDTA): 46.920 and 60.763 and 47.376 and 57.503
fluorescence intensity (Fig 3d) (wavelength 345.000, 5.9 uM Zn): 72.128 and 82.137 and 99.714 and 78.760
fluorescence intensity (Fig 3d) (wavelength 345.000, 303 uM + 7 mM EDTA): 47.458 and 59.823 and 48.062 and 56.893
fluorescence intensity (Fig 3d) (wavelength 345.930, 5.9 uM Zn): 71.776 and 81.061 and 99.602 and 78.398
fluorescence intensity (Fig 3d) (wavelength 345.930, 303 uM + 7 mM EDTA): 46.538 and 59.478 and 47.757 and 57.073
fluorescence intensity (Fig 3d) (wavelength 347.030, 5.9 uM Zn): 71.072 and 82.334 and 98.859 and 79.154
fluorescence intensity (Fig 3d) (wavelength 347.030, 303 uM + 7 mM EDTA): 46.563 and 59.464 and 46.878 and 57.408
fluorescence intensity (Fig 3d) (wavelength 347.960, 5.9 uM Zn): 71.769 and 81.510 and 99.591 and 78.171
fluorescence intensity (Fig 3d) (wavelength 347.960, 303 uM + 7 mM EDTA): 45.283 and 58.791 and 46.798 and 57.210
fluorescence intensity (Fig 3d) (wavelength 349.060, 5.9 uM Zn): 70.238 and 80.987 and 97.751 and 77.682
fluorescence intensity (Fig 3d) (wavelength 349.060, 303 uM + 7 mM EDTA): 45.444 and 58.323 and 46.643 and 56.691
fluorescence intensity (Fig 3d) (wavelength 350.000, 5.9 uM Zn): 70.361 and 79.928 and 96.969 and 77.347
fluorescence intensity (Fig 3d) (wavelength 350.000, 303 uM + 7 mM EDTA): 46.247 and 57.135 and 46.656 and 55.433
fluorescence intensity (Fig 3d) (wavelength 351.070, 5.9 uM Zn): 69.431 and 78.906 and 96.271 and 76.869
fluorescence intensity (Fig 3d) (wavelength 351.070, 303 uM + 7 mM EDTA): 44.467 and 57.328 and 46.098 and 55.451
fluorescence intensity (Fig 3d) (wavelength 352.000, 5.9 uM Zn): 68.120 and 77.981 and 94.313 and 75.803
fluorescence intensity (Fig 3d) (wavelength 352.000, 303 uM + 7 mM EDTA): 43.888 and 56.825 and 45.420 and 54.752
fluorescence intensity (Fig 3d) (wavelength 353.070, 5.9 uM Zn): 68.949 and 77.078 and 94.185 and 75.610
fluorescence intensity (Fig 3d) (wavelength 353.070, 303 uM + 7 mM EDTA): 44.416 and 56.590 and 44.950 and 53.826
SMILES: [Cl-].[Cl-].[Zn+2] [Zn2+, ZnCl2]
fluorescence intensity (Fig 3d) (wavelength 344.060, 11.6 uM Zn): 137.473 and 118.285 and 119.381 and 125.424
fluorescence intensity (Fig 3d) (wavelength 344.060, 17.2 uM): 144.028 and 132.015 and 131.570 and 130.788
fluorescence intensity (Fig 3d) (wavelength 344.060, 22.1 uM): 144.718 and 132.736 and 132.728 and 133.653
fluorescence intensity (Fig 3d) (wavelength 344.060, 308 uM): 145.265 and 136.149 and 137.211 and 134.542
fluorescence intensity (Fig 3d) (wavelength 345.000, 11.6 uM Zn): 136.143 and 118.777 and 118.942 and 125.157
fluorescence intensity (Fig 3d) (wavelength 345.000, 17.2 uM): 143.645 and 133.321 and 131.572 and 130.710
fluorescence intensity (Fig 3d) (wavelength 345.000, 22.1 uM): 145.000 and 131.998 and 131.843 and 133.775
fluorescence intensity (Fig 3d) (wavelength 345.000, 308 uM): 144.708 and 135.717 and 137.517 and 134.634
fluorescence intensity (Fig 3d) (wavelength 345.930, 11.6 uM Zn): 136.970 and 118.112 and 117.682 and 126.024
fluorescence intensity (Fig 3d) (wavelength 345.930, 17.2 uM): 141.957 and 131.827 and 133.131 and 130.466
fluorescence intensity (Fig 3d) (wavelength 345.930, 22.1 uM): 144.023 and 131.491 and 131.306 and 133.317
fluorescence intensity (Fig 3d) (wavelength 345.930, 308 uM): 146.221 and 136.206 and 135.004 and 135.504
fluorescence intensity (Fig 3d) (wavelength 347.030, 11.6 uM Zn): 136.428 and 116.259 and 118.136 and 125.709
fluorescence intensity (Fig 3d) (wavelength 347.030, 17.2 uM): 143.257 and 130.522 and 131.583 and 130.190
fluorescence intensity (Fig 3d) (wavelength 347.030, 22.1 uM): 143.355 and 132.787 and 131.250 and 133.300
fluorescence intensity (Fig 3d) (wavelength 347.030, 308 uM): 143.593 and 135.007 and 136.120 and 131.786
fluorescence intensity (Fig 3d) (wavelength 347.960, 11.6 uM Zn): 135.240 and 116.880 and 117.708 and 124.016
fluorescence intensity (Fig 3d) (wavelength 347.960, 17.2 uM): 142.807 and 131.611 and 130.941 and 130.389
fluorescence intensity (Fig 3d) (wavelength 347.960, 22.1 uM): 143.457 and 132.267 and 131.085 and 131.433
fluorescence intensity (Fig 3d) (wavelength 347.960, 308 uM): 143.843 and 137.208 and 136.441 and 131.749
fluorescence intensity (Fig 3d) (wavelength 349.060, 11.6 uM Zn): 133.289 and 115.415 and 117.009 and 123.858
fluorescence intensity (Fig 3d) (wavelength 349.060, 17.2 uM): 141.765 and 129.352 and 128.670 and 129.296
fluorescence intensity (Fig 3d) (wavelength 349.060, 22.1 uM): 143.406 and 129.810 and 130.322 and 131.038
fluorescence intensity (Fig 3d) (wavelength 349.060, 308 uM): 142.247 and 135.083 and 133.810 and 131.017
fluorescence intensity (Fig 3d) (wavelength 350.000, 11.6 uM Zn): 133.490 and 115.112 and 115.204 and 122.552
fluorescence intensity (Fig 3d) (wavelength 350.000, 17.2 uM): 139.096 and 129.329 and 128.852 and 128.076
fluorescence intensity (Fig 3d) (wavelength 350.000, 22.1 uM): 141.183 and 128.688 and 130.269 and 130.830
fluorescence intensity (Fig 3d) (wavelength 350.000, 308 uM): 141.144 and 132.558 and 133.688 and 130.339
fluorescence intensity (Fig 3d) (wavelength 351.070, 11.6 uM Zn): 132.922 and 115.046 and 115.123 and 121.097
fluorescence intensity (Fig 3d) (wavelength 351.070, 17.2 uM): 138.288 and 127.252 and 128.238 and 128.122
fluorescence intensity (Fig 3d) (wavelength 351.070, 22.1 uM): 141.654 and 129.837 and 129.072 and 130.149
fluorescence intensity (Fig 3d) (wavelength 351.070, 308 uM): 140.017 and 132.105 and 134.422 and 129.176
fluorescence intensity (Fig 3d) (wavelength 352.000, 11.6 uM Zn): 130.471 and 114.079 and 114.609 and 120.211
fluorescence intensity (Fig 3d) (wavelength 352.000, 17.2 uM): 137.149 and 127.411 and 127.203 and 126.379
fluorescence intensity (Fig 3d) (wavelength 352.000, 22.1 uM): 138.638 and 128.177 and 127.675 and 129.182
fluorescence intensity (Fig 3d) (wavelength 352.000, 308 uM): 138.087 and 131.742 and 132.330 and 127.940
fluorescence intensity (Fig 3d) (wavelength 353.070, 11.6 uM Zn): 129.066 and 111.840 and 112.851 and 119.597
fluorescence intensity (Fig 3d) (wavelength 353.070, 17.2 uM): 136.752 and 125.751 and 126.785 and 126.237
fluorescence intensity (Fig 3d) (wavelength 353.070, 22.1 uM): 137.626 and 125.497 and 127.123 and 126.659
fluorescence intensity (Fig 3d) (wavelength 353.070, 308 uM): 136.115 and 129.581 and 128.718 and 126.753
